At least one peptide structure holds a part that was inferred or is arguable (an end, a ring closure or a residue).
Biological target: T1, LGR7 (Homo sapiens, UniProt Q9HBX9)
T1 construct: expressed in transfected cells
T1 sequence (Q9HBX9 1-757): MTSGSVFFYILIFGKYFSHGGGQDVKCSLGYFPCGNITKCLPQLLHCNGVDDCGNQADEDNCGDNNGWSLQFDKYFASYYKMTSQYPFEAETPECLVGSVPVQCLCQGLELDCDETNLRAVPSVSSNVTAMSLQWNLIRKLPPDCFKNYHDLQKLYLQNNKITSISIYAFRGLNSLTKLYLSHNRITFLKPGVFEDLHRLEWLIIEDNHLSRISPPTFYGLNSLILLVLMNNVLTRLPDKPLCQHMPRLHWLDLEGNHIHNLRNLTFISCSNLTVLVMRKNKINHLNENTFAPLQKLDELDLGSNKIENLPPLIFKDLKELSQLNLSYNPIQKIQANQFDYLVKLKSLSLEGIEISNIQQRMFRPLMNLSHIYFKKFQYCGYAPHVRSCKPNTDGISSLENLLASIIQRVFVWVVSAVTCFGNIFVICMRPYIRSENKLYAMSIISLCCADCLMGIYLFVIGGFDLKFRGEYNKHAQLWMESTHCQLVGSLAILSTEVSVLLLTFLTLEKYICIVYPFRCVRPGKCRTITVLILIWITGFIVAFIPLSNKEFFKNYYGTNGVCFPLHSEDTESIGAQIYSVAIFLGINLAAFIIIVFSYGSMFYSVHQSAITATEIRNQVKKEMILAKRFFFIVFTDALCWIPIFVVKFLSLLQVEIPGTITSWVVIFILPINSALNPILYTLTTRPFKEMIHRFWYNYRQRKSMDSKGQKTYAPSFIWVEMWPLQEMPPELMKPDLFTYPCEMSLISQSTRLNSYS
Experiment: LGR7 CRE-Luc reporter gene assay (relaxin bioactivity)
Assay type: cell-based
Conditions: HEK293T cells expressing LGR7 and CRE-Luc; relative to relaxin
Procedure: Relaxin 2 signals through leucine-rich repeat-containing GPCRs (i.e. LGR7 (RFXR1)). The bioactivity of wild-type relaxin peptides was determined based on the stimulation of adenylate cyclase activity in HEK293T cells stably expressing recombinant LGR7. Stable LGR7 expressing cells were maintained in Dulbecco's modified Eagle's medium/F-12 media supplemented with […] Zeocin (Invitrogen). A cyclic AMP responsive element driven luciferase (CRE-Luc) reporter line was generated by lentiviral transduction of these LGR7 expressing HEK293T cells with CRE-Luc lentivirus (Qiagen) and selected with puromycine (2 μg/mL) for two weeks. A reporter gene assay was used to detect cAMP levels and LGR7 activation by relaxin.
Assay detail: HEK293T cells expressing LGR7 and CRE-Luc are seeded at a density of 5×10^3 cells per well in 50 μl of Dulbecco's modified Eagle's medium/F-12 medium containing 10% FBS in 384-well solid bottom white plates. Cells are pre-incubated at 37° C. for overnight. Different concentrations of relaxin peptides (from 0.01 nM to 1000 nM) were added in triplicate, incubated for 18 hours and luciferase activity was detected by adding […] of Bright Glo (Promega). Luminescence was recorded on Envision (Perkin Elmer). EC50 is calculated after non-linear curve fitting (see FIG. 3 for relaxin H2 dose response curve).

| SMILES | Activity, fold drop compared to relaxin [fold] |
| --- | --- |
| CCCCCCCCCCCCCC(=O)NCCOCCOCCNC(=O)CSC[C@H](NC(=O)[C@H](Cc1c[nH]c2ccccc12)NC(=O)[C@@H](NC(=O)[C@H](CO)NC(=O)[C@H](CCSC)NC(=O)CNC(=O)[C@@H]1CSSC[C@@H](C(=O)O)NC(=O)[C@H](Cc2ccccc2)NC(=O)[C@H](CCCNC(=N)N)NC(=O)[C@H](C)NC(=O)[C@H](CC(C)C)NC(=O)[C@H](CO)NC(=O)[C@H](CCCNC(=N)N)NC(=O)[C@H](CCCCN)NC(=O)[C@H]([C@@H](C)O)NC(=O)[C@@H]2CSSC[C@H](NC(=O)[C@H](CCCCN)NC(=O)[C@H](CC(N)=O)NC(=O)[C@H](C)NC(=O)[C@H](CC(C)C)NC(=O)[C@H](C)NC(=O)[C@H](CO)NC(=O)[C@H](Cc3ccc(O)cc3)NC(=O)[C@H](CC(C)C)NC(=O)[C@@H](N)CCC(N)=O)C(=O)N[C@@H](CSSC[C@H](NC(=O)[C@H](CC(C)C)NC(=O)[C@H](CCCCN)NC(=O)[C@@H](NC(=O)[C@@H](NC(=O)[C@H](CCC(=O)O)NC(=O)[C@H](CCC(=O)O)NC(=O)[C@H](CCSC)NC(=O)[C@H](Cc3c[nH]c4ccccc34)NC(=O)[C@H](CO)NC(=O)[C@H](C)N)C(C)C)[C@@H](C)CC)C(=O)NCC(=O)N[C@@H](CCCNC(=N)N)C(=O)N[C@@H](CCC(=O)O)C(=O)N[C@@H](CC(C)C)C(=O)N[C@@H](C(C)C)C(=O)N[C@@H](CCCNC(=N)N)C(=O)N[C@@H](C)C(=O)N[C@@H](CCC(N)=O)C(=O)N[C@@H]([C@@H](C)CC)C(=O)N[C@@H](C)C(=O)N[C@@H]([C@@H](C)CC)C(=O)N1)C(=O)N[C@@H](Cc1c[nH]cn1)C(=O)N[C@@H](C(C)C)C(=O)NCC(=O)N2)[C@@H](C)O)C(=O)O [Relaxin-B-D1AS29C-FA1] | 0 |
| CC[C@H](C)[C@@H]1NC(=O)[C@H](C)NC(=O)[C@H]([C@@H](C)CC)NC(=O)[C@H](CCC(N)=O)NC(=O)[C@H](C)NC(=O)[C@H](CCCNC(=N)N)NC(=O)[C@H](C(C)C)NC(=O)[C@H](CC(C)C)NC(=O)[C@H](CCC(=O)O)NC(=O)[C@H](CCCNC(=N)N)NC(=O)CNC(=O)[C@@H](NC(=O)[C@H](CC(C)C)NC(=O)[C@H](CCCCN)NC(=O)[C@@H](NC(=O)[C@@H](NC(=O)[C@H](CCC(=O)O)NC(=O)[C@H](CCC(=O)O)NC(=O)[C@H](CCSC)NC(=O)[C@H](Cc2c[nH]c3ccccc23)NC(=O)[C@H](CO)NC(=O)[C@H](C)N)C(C)C)[C@@H](C)CC)CSSC[C@@H]2NC(=O)[C@@H](NC(=O)[C@H](CCCCN)NC(=O)[C@H](CC(N)=O)NC(=O)[C@H](C)NC(=O)[C@H](CC(C)C)NC(=O)[C@H](C)NC(=O)[C@H](CO)NC(=O)[C@H](Cc3ccc(O)cc3)NC(=O)[C@H](CC(C)C)NC(=O)[C@@H](N)CSCC(=O)NCCOCCOCCC(=O)NCCOCCOCCC(=O)NCCCC[C@H](NC(=O)CCCCCCCCCCCCCCCCC(=O)O)C(=O)O)CSSC[C@H](NC(=O)CNC(=O)[C@H](C(C)C)NC(=O)[C@H](Cc3c[nH]cn3)NC2=O)C(=O)N[C@@H]([C@@H](C)O)C(=O)N[C@@H](CCCCN)C(=O)N[C@@H](CCCNC(=N)N)C(=O)N[C@@H](CO)C(=O)N[C@@H](CC(C)C)C(=O)N[C@@H](C)C(=O)N[C@@H](CCCNC(=N)N)C(=O)N[C@@H](Cc2ccccc2)C(=O)N[C@H](C(=O)O)CSSC[C@@H](C(=O)NCC(=O)N[C@@H](CCSC)C(=O)N[C@@H](CO)C(=O)N[C@H](C(=O)N[C@@H](Cc2c[nH]c3ccccc23)C(=O)N[C@@H](CO)C(=O)O)[C@@H](C)O)NC1=O [Relaxin-B-D1A, A-Q1C-FA2] | 15 |

Reference: patent US10286078B2, “Modified therapeutic agents and compositions thereof” (THE CALIFORNIA INSTITUTE FOR BIOMEDICAL RESEARCH, priority 2013, dated 2019)
